The other results are listed elsewhere or left out. Most values lie at the level of the controls, where differences are scatter.

Protein sequences, listed by entry. Tags and fused reporters are not part of them. Lines headed by an entry give the natural chain unless they say otherwise; changes in a name come on top.
UniProt Q9NX01: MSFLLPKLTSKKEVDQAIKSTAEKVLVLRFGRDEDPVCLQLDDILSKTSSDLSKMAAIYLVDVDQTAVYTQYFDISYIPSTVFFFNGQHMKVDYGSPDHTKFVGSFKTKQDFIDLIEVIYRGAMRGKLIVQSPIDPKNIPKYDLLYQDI
UniProt Q9NYD6, whole entry: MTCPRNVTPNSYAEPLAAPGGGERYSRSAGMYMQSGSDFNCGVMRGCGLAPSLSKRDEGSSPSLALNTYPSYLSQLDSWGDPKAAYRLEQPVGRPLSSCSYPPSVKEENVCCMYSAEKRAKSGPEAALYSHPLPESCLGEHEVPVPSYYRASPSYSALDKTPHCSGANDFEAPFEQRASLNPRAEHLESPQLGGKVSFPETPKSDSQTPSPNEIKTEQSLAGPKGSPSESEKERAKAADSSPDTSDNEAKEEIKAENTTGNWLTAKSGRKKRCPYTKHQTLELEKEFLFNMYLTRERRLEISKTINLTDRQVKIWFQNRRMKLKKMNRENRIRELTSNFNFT
UniProt Q9NTZ6: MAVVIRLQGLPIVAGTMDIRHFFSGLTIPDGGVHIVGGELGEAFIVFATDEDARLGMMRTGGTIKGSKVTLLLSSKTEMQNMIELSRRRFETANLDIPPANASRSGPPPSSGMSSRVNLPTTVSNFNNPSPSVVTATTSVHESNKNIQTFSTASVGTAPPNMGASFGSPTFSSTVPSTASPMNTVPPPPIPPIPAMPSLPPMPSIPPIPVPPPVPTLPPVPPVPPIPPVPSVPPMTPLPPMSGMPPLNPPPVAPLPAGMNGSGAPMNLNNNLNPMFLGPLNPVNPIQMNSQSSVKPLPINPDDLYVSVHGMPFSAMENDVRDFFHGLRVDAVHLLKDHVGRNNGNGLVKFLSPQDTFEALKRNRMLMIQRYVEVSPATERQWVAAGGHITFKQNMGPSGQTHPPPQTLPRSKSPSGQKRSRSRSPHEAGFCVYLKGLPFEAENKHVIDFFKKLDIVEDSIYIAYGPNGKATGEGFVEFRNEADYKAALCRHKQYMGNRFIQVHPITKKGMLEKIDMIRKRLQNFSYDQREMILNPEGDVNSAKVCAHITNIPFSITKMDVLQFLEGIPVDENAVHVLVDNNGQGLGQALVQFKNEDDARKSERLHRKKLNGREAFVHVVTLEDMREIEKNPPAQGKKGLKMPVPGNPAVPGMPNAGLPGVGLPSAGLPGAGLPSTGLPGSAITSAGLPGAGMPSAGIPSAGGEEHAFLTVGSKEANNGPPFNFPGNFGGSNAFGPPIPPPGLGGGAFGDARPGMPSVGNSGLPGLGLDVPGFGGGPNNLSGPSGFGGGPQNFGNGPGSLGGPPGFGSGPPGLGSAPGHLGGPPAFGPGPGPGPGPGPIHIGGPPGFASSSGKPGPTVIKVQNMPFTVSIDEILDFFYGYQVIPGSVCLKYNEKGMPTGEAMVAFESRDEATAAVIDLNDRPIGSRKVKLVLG
UniProt Q9NS23: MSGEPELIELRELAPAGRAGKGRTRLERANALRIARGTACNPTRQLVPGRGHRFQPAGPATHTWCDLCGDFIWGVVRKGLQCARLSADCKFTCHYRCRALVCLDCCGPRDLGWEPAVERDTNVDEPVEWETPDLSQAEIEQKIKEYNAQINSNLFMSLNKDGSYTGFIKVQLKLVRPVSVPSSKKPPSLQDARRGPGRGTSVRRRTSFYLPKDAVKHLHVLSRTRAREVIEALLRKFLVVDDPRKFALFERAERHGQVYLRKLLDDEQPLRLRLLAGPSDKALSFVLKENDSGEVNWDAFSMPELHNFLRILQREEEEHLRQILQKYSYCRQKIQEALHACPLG
UniProt Q9NWV4: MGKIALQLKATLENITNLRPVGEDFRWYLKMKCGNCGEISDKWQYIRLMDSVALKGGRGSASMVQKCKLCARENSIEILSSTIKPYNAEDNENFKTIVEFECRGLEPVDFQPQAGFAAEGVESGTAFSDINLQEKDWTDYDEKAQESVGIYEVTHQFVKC
UniProt Q9NRJ4: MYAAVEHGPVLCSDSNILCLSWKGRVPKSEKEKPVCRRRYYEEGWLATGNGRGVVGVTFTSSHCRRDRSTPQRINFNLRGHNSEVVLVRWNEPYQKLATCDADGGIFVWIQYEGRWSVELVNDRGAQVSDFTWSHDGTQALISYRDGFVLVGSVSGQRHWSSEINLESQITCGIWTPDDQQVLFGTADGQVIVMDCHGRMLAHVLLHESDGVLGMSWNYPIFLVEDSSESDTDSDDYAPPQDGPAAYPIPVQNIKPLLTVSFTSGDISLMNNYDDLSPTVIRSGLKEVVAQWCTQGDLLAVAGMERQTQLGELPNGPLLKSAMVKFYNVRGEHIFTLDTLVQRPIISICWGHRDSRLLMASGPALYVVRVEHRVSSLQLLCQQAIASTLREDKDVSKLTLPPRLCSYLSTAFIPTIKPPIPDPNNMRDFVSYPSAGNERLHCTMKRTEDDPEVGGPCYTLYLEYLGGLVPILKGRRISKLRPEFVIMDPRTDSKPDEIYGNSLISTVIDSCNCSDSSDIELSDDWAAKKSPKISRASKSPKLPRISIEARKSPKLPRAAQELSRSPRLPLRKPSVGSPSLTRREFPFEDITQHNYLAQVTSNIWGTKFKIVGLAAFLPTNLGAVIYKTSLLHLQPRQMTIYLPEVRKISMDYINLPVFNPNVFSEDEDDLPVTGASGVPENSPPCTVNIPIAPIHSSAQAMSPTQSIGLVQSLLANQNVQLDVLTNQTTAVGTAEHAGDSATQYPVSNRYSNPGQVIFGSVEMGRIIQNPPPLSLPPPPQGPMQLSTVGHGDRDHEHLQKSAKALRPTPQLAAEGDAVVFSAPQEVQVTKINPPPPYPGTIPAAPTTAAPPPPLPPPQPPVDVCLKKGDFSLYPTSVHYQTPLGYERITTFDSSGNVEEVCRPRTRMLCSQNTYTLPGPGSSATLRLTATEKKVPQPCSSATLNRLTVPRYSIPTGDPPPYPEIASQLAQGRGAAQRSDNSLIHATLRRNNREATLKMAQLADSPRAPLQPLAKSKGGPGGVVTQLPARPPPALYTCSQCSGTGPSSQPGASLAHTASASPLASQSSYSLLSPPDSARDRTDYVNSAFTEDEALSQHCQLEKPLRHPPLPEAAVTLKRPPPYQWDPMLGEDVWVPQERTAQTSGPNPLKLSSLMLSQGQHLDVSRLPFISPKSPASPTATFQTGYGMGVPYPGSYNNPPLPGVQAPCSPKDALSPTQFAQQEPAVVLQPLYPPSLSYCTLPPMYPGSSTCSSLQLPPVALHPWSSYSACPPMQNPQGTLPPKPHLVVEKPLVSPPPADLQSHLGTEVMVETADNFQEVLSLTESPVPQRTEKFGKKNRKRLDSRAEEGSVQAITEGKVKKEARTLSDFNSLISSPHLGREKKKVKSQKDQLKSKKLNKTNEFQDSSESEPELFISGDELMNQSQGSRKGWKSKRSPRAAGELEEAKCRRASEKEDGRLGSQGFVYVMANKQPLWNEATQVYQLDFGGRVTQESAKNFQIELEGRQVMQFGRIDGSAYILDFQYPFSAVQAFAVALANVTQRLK
UniProt Q9NQY0: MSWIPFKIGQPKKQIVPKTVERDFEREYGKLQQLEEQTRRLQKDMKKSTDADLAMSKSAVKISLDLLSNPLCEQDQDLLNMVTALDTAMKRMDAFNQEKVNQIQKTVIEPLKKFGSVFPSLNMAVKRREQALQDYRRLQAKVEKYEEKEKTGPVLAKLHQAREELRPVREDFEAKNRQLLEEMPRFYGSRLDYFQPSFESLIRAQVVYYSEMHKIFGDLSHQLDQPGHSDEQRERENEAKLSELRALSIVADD
UniProt Q9NXK8: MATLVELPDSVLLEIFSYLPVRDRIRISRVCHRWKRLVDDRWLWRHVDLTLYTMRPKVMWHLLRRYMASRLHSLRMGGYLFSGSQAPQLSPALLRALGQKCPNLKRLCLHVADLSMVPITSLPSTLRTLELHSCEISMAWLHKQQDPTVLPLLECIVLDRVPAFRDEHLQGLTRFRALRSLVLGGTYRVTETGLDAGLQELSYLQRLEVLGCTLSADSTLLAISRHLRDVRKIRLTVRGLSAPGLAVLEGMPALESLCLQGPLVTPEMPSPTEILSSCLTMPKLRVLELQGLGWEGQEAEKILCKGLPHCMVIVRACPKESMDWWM
UniProt Q9NZ08: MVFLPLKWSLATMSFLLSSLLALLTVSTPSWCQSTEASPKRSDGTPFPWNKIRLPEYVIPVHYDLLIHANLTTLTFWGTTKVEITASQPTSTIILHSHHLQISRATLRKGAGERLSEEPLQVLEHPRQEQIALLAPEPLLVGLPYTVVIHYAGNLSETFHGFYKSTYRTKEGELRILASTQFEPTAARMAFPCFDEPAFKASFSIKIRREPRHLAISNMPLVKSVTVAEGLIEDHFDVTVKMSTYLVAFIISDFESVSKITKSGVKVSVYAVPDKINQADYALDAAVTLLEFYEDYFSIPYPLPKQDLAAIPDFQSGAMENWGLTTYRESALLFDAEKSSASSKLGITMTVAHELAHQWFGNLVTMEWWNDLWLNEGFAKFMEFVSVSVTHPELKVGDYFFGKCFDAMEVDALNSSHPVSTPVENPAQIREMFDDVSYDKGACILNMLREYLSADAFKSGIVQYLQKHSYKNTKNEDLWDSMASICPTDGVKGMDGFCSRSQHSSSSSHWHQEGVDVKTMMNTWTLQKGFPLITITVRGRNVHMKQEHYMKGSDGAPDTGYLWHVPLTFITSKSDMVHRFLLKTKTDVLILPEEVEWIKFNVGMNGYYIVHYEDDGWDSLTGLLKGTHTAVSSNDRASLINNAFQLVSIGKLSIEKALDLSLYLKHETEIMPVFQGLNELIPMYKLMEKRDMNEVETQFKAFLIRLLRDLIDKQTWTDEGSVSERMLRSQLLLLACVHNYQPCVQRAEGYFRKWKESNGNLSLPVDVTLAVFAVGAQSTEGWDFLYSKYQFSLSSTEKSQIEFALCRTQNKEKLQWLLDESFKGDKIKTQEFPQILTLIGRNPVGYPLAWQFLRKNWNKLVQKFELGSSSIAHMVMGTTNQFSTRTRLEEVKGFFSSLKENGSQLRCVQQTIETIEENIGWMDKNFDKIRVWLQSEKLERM
UniProt Q9NW68: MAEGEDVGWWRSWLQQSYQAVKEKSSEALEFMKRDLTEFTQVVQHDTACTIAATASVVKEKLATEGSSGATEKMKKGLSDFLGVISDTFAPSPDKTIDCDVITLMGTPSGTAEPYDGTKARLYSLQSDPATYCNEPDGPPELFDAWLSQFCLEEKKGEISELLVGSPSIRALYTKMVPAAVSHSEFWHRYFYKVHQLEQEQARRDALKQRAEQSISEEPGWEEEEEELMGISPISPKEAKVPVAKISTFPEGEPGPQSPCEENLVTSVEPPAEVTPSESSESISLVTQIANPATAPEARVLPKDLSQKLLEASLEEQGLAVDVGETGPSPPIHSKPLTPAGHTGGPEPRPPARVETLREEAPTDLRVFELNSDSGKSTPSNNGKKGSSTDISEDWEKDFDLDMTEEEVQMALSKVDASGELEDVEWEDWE
UniProt Q9NX55: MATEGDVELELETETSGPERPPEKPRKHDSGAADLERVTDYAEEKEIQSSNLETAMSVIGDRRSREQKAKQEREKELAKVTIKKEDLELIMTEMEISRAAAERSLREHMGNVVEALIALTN
UniProt Q9NYK6: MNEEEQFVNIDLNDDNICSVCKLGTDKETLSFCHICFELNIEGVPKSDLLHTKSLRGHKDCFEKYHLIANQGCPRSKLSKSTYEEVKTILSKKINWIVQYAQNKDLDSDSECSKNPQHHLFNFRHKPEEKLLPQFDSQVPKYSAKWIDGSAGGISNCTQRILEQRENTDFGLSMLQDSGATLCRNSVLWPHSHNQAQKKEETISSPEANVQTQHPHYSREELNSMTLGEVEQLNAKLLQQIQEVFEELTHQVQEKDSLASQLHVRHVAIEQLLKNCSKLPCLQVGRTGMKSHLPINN
UniProt Q9NXV6: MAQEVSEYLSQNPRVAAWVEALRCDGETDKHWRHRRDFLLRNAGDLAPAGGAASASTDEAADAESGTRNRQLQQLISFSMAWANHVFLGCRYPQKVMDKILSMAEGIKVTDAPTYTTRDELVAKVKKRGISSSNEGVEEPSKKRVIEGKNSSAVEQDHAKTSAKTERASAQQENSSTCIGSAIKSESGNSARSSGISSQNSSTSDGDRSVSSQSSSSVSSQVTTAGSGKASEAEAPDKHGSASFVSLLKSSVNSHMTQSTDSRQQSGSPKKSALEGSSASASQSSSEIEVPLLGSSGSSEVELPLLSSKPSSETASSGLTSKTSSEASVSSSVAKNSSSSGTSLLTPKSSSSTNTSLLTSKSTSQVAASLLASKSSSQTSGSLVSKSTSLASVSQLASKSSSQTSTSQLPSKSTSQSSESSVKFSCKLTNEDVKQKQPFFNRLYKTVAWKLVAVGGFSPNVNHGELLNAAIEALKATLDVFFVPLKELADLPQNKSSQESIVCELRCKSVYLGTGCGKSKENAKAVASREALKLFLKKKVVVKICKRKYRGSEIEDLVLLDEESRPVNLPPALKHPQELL

Compound in this assay: CN[C@@H]1C[C@H]2O[C@@](C)([C@@H]1OC)n1c3ccccc3c3c4c(c5c6ccccc6n2c5c31)C(=O)NC4 [staurosporine]
Description: log2 fold change of tryptic peptide abundance, ligand vs vehicle (limited proteolysis) (log2 ratio); higher = more trypsin-susceptible (destabilized). Particulars: ligand concentration: 20 uM; sample: K562 cleared lysate; digestion: 4 min, 22 C (HT-PELSA RT4min, Orbitrap Astral).
“TXNL4B (peptide sequence: TKQDFIDLIEVIYR, peptide start residue: 108) (UniProt Q9NX01)”: the log2 fold change came out at 0.377.

With “UniProt Q9NYD6 (peptide sequence: EFLFNMYLTR, peptide start residue: 203)”, the log2 fold change amounted to 0.561.

With “MRPL16 (peptide sequence: IATANMLGIR, peptide start residue: 218) (UniProt Q9NX20)”, the log2 fold change was 0.149.

For the target “KCTD5 (peptide sequence: GGIGAGLGGGLCR, peptide start residue: 14) (UniProt Q9NXV2)”, the log2 fold change was -0.078.

Turning to “SAMSN1 (peptide sequence: KPSNVSEK, peptide start residue: 5) (UniProt Q9NSI8)”, the log2 fold change came out at 0.17.

For “RBM12 (peptide sequence: ATGEGFVEFRNEADYK, peptide start residue: 470) (UniProt Q9NTZ6)”, the log2 fold change was -0.352.

As to “UniProt Q9NUS5 (peptide sequence: LLAPSTSLLLR, peptide start residue: 152)”, the log2 fold change was -0.376.

With “RIC8B (peptide sequence: DQVLPPLR, peptide start residue: 386) (UniProt Q9NVN3)”, the log2 fold change worked out at 0.442.

Turning to “UniProt Q9NV06 (peptide sequence: FQHYPHIK, peptide start residue: 381)”, the log2 fold change stood at 0.64.

“RASSF1 (peptide sequence: KPPSLQDAR, peptide start residue: 185) (UniProt Q9NS23)”: the log2 fold change was 0.354.

With “UniProt Q9NWV4 (peptide sequence: ATLENITNLRPVGEDFR, peptide start residue: 10)”, the log2 fold change stood at 0.569.

As to “SMPD4 (peptide sequence: RFEIEYQGDPELQPIR, peptide start residue: 721) (UniProt Q9NXE4)”, the log2 fold change was -0.248.

“UniProt Q9NXB0 (peptide sequence: AFMESSSLQK, peptide start residue: 498)”: the log2 fold change was -0.137.

Consider “UniProt Q9NRJ4 (peptide sequence: TAQTSGPNPLK, peptide start residue: 1139)”, for which the log2 fold change was 0.463.

Consider “UniProt Q9NYL2 (peptide sequence: LLLLEEEDLKDMGIVSK, peptide start residue: 378)”, for which the log2 fold change is 0.29.

For “BIN3 (peptide sequence: EELRPVREDFEAK, peptide start residue: 163) (UniProt Q9NQY0)”, the log2 fold change is 0.487.

As to “FBXL12 (peptide sequence: HVDLTLYTMRPK, peptide start residue: 46) (UniProt Q9NXK8)”, the log2 fold change amounted to 0.736.

For “ERAP1 (peptide sequence: GMDGFCSR, peptide start residue: 493) (UniProt Q9NZ08)”, the log2 fold change was 0.0424.

In the case of “BSDC1 (peptide sequence: EEAPTDLR, peptide start residue: 359) (UniProt Q9NW68)”, the log2 fold change was -0.132.

Take “UniProt Q9NX55 (peptide sequence: VTIKKEDLELIMTEMEISR, peptide start residue: 80)”: the log2 fold change worked out at 0.477.

In the case of “EURL (peptide sequence: LLPQFDSQVPK, peptide start residue: 131) (UniProt Q9NYK6)”, the log2 fold change is -0.0628.

Consider “CTPS2 (peptide sequence: LYGDVPFIEER, peptide start residue: 467) (UniProt Q9NRF8)”, for which the log2 fold change came to 0.416.

As for “FANCI (peptide sequence: EDALFCK, peptide start residue: 1020) (UniProt Q9NVI1)”, the log2 fold change is 0.457.

For “DDIT4 (peptide sequence: TPTPDRPPR, peptide start residue: 23) (UniProt Q9NX09)”, the log2 fold change is -0.181.

As for “HELLS (peptide sequence: EEILSVAKK, peptide start residue: 145) (UniProt Q9NRZ9)”, the log2 fold change turned out to be 0.795.

As to “CDKN2AIP (peptide sequence: NSSAVEQDHAK, peptide start residue: 150) (UniProt Q9NXV6)”, the log2 fold change was found to be 0.156.

With “OCIAD1 (peptide sequence: KLENSPLGEALR, peptide start residue: 104) (UniProt Q9NX40)”, the log2 fold change was determined as 0.572.
